Source: patent US5385829A, “Method of assaying for acyl-L-carnitines and short-chain acyl-carnitines” (priority 1990, dated 1995)
Entries after “also recorded” stand apart in the source; their conditions may differ. Read-outs that look alike come from different tables or passages of the source. At least one compound was matched to its structure with a doubt left.

How the values were obtained:
[1] = system: acyl-carnitine esterase according to the present invention; test: Km value of the acyl-carnitine esterase for acyl-carnitines; assay type: biochemical, Alcaligenes sp. No. 981; conditions: inventive esterase; 100 mM tris-HCl buffer pH 8.0; substrate 1×10^-5 to 40×10^-5 M
[2] = system: acyl-carnitine esterase originating from liver of rat; test: Enzymatic activity and Km of rat liver esterase (Reference Example 4); assay type: biochemical; conditions: for enzymatic activity of rat liver esterase for the substrate: esterase originating from liver of rat
[3] = system: acyl-carnitine esterase originating from liver of rat; conditions: prior art, Mahadevan and Sauer 1969, cited from earlier work
[4] = system: acyl-carnitine esterase according to the present invention; test: Substrate specificity of the acyl-carnitine esterase; assay type: biochemical, Alcaligenes sp. No. 981; conditions: 0.5 mM acyl-carnitine, 10 mins; for enzymatic activity of the inventive esterase for the substrate: pH 8.0, 37° C.; for Enzymatic Activity in Relative %: inventive esterase, 100 mM tris-HCl pH 8.0, 37° C.
[5] = rat liver esterase of Reference Example 3

SMILES | Km [1] | enzymatic activity of rat liver esterase for the substrate [2] | Enzymatic Activity (rel. %) [2, 5] | activity of rat liver esterase for the substrate [3] | enzymatic activity of the inventive esterase for the substrate [4] | Enzymatic Activity in Relative % [4] | Km ([2]; rat liver esterase of Reference Example 3, text b467: of the order of 10^-3 M) | Km ([3]; rat liver esterase)
CCC(=O)O[C@H](CC(=O)[O-])C[N+](C)(C)C [Propionyl-carnitine, propionyl-L-carnitine] | ~30 µM | did not exhibit enzymatic activity; also recorded: does not exhibit enzymatic activity | 0% | no activity | substantial activity | 46% |  | 
CCCCCCCCCCCCCCCC(=O)O[C@H](CC(=O)[O-])C[N+](C)(C)C [Palmitoyl-carnitine, palmitoyl-L-carnitine] |  |  |  |  |  |  | ~5000 µM | 5000 µM
CC(=O)O[C@H](CC(=O)[O-])C[N+](C)(C)C [Acetyl-carnitine, acetyl-L-carnitine] | ~40 µM | did not exhibit enzymatic activity; also recorded: does not exhibit enzymatic activity | 0% | no activity | substantial activity | 17% |  | 
